Data as given in PubChem BioAssay AID1159578 (Peter MacCallum Cancer Centre, 2015).
Screen: 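siRNA pools altering how lymphatic endothelial cells close a scratch wound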 (primary screen). System: human lymphatic endothelial cells. Knock-down reagent: siRNA pool against human genes, 40 nM. Duration: 48 h after transfection. Read-out: 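High-content imaging of dye-stained cells in a scratch assay measures filled wound area and nuclei per well; duplicate means given as ratio to mock and robust z-score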. Scale: migration robust z-score: higher = faster migration into the scratch; nuclei per well: higher = more cells in the well. Call rule: 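Pools averaging fewer than 3300 nuclei are never called; remaining pools count as changed when migration robust z lies outside -2 to 2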. Calls: active = migration changed; inactive = no migration change, or too few cells.
The whole screen tested about 18,000 reagents; shown is a part drawn at random. About 1,030 of all reagents (5.7%) count as active. 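Inactive calls also include pools with fewer than 3300 nuclei, whose migration was not assessed.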 Raw values are not corrected between plates. Unmarked entries are inactive. Further read-outs or replicates are left out here. Reagent sequences are not shown.

The opening 3 entries, to show the layout:
| gene | migration robust z-score | nuclei per well, duplicate mean |
| --- | --- | --- |
| H4C12 (H4 clustered histone 12) | 0.47 | 5634 |
| F2RL3 (F2R like thrombin or trypsin receptor 3) | -0.24 | 4874 |
| CNTN1 (contactin 1) | 1.94 | 5636 |

The listing, from the start:
| gene | migration robust z-score | nuclei per well, duplicate mean |
| --- | --- | --- |
| H4C12 (H4 clustered histone 12) | 0.47 | 5634 |
| F2RL3 (F2R like thrombin or trypsin receptor 3) | -0.24 | 4874 |
| CNTN1 (contactin 1) | 1.94 | 5636 |
| NUP43 (nucleoporin 43) | -2.08 (active) | 4270 |
| CD28 (CD28 molecule) | 0.78 | 6123 |
| AEBP2 (AE binding protein 2) | 1.26 | 6436 |
| NARF (nuclear prelamin A recognition factor) | -1.6 | 6175 |
| ISOC1 (isochorismatase domain containing 1) | -1.43 | 4340 |
| USP47 (ubiquitin specific peptidase 47) | 0.55 | 5360 |
| CDKN1C (cyclin dependent kinase inhibitor 1C) | -2.05 (active) | 3860 |
| CDHR2 (cadherin related family member 2) | -0.66 | 5850 |
| OR9G9 (olfactory receptor family 9 subfamily G member 9) | -1.46 | 5992 |
| LRTM1 (leucine rich repeat transmembrane protein 1) | -0.49 | 5048 |
| TSC22D1 (TSC22 domain family member 1) | -1.77 | 5175 |
| EPX (eosinophil peroxidase) | -0.91 | 7329 |
| TRIM41 (tripartite motif containing 41) | 0.68 | 4898 |
| MBLAC2 (metallo-beta-lactamase domain containing 2) | 0.5 | 6618 |
| TYMSOS (TYMS opposite strand RNA) | -1.84 | 5720 |
| MAGEA3 (MAGE family member A3) | 0.26 | 6839 |
| SKA2 (spindle and kinetochore associated complex subunit 2) | 1.47 | 6154 |
| CTSW (cathepsin W) | -0.11 | 5368 |
| ACOT13 (acyl-CoA thioesterase 13) | -2.54 (active) | 7660 |
| TNXB (tenascin XB) | 1.2 | 5292 |
| HES6 (hes family bHLH transcription factor 6) | 0.28 | 5494 |
| SPTBN4 (spectrin beta, non-erythrocytic 4) | -1.03 | 6458 |
| LOC400576 (retired record) | -1.17 | 6170 |
| H2AC7 (H2A clustered histone 7) | -0.54 | 6608 |
| PRSS36 (serine protease 36) | -0.68 | 6089 |
| TMEM192 (transmembrane protein 192) | -0.87 | 5686 |
| OR2T5 (olfactory receptor family 2 subfamily T member 5) | -0.07 | 6022 |
| GNA11 (G protein subunit alpha 11) | -1.86 | 4173 |
| IVD (isovaleryl-CoA dehydrogenase) | -1.35 | 5392 |
| ZSWIM4 (zinc finger SWIM-type containing 4) | 1.58 | 6392 |
| UBL3 (ubiquitin like 3) | 0.88 | 5758 |
| BBS10 (Bardet-Biedl syndrome 10) | 0.56 | 6440 |
| SPATA25 (spermatogenesis associated 25) | -1.29 | 4362 |
| SUSD6 (sushi domain containing 6) | -1.28 | 5063 |
| CABP1 (calcium binding protein 1) | 1.42 | 6192 |
| SP8 (Sp8 transcription factor) | 0.54 | 7306 |
